# Data from the M2OR odorant receptor database.
# Chains of the proteins cited; added tags and fusions are not shown. Where a name states a change or a piece, a line headed by the entry shows the natural chain unless it says otherwise. Chains listed by the source or under a name are the forms on record and can include a tag or linker.
# UniProt Q8NH87: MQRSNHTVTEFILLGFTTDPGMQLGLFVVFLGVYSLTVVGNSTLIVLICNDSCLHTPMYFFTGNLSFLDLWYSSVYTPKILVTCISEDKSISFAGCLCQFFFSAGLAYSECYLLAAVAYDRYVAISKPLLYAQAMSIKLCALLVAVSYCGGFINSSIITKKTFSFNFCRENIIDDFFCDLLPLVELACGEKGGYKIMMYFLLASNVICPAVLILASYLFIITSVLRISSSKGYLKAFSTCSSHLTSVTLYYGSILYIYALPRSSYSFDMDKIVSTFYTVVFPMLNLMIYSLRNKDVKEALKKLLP
# UniProt Q8NGQ1: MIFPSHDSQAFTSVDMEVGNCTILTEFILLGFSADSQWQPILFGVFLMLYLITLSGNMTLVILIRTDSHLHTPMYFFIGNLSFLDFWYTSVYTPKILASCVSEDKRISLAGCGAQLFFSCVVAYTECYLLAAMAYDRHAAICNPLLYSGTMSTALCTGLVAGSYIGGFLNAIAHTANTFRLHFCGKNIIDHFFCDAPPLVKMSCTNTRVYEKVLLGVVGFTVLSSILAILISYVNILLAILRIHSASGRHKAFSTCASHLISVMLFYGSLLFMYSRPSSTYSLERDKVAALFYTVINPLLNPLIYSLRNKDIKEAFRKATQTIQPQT
# OR9G1, as listed by the source: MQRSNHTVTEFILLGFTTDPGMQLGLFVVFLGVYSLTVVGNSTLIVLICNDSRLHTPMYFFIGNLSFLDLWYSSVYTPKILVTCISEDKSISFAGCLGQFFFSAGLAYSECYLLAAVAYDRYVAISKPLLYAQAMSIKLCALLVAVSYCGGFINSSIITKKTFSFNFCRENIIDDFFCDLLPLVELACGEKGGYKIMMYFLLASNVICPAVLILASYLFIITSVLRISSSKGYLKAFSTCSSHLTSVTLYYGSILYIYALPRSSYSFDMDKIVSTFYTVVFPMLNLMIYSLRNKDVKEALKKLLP
# Only a part is listed here, and it is no random draw. The calls were merged from several studies; some rest on single wells. Some of the results follow.
# Tests used:
# Settings in all cases: stereoisomer not certain
# OR8U9 = tested on: T1, OR8U9
# T1 sequence (whole entry): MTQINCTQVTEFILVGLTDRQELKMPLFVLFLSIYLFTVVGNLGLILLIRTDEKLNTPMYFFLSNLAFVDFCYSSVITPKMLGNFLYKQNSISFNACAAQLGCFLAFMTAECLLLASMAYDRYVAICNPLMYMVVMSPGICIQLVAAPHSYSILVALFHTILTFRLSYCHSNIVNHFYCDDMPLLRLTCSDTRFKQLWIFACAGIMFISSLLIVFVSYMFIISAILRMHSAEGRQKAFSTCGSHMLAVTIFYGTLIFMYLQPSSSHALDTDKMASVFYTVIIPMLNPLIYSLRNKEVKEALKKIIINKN
# In short: (§1)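 Assay methods differ from source to source, frequently being transient luciferase assays in mammalian cell lines. For each receptor–molecule pair, the label responsive (active) applies when the original authors judged the measured signal statistically different from baseline, and non-responsive (inactive) applies otherwise.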
# OR9A2 = tested on: T2, OR9A2
# T2 sequence (whole entry): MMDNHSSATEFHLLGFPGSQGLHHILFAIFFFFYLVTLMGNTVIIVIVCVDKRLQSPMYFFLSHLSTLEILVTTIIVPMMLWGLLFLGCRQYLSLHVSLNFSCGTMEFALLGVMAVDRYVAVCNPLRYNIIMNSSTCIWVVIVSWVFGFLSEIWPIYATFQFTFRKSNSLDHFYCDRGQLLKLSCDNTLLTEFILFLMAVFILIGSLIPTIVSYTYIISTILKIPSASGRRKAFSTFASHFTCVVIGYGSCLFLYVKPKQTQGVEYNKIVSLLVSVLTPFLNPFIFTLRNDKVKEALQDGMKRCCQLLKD
# In short: as §1
# OR9A4 (Homo sapiens) = biological target: T3, OR9A4 (Homo sapiens) (UniProt Q8NGU2)
# T3 sequence (whole entry): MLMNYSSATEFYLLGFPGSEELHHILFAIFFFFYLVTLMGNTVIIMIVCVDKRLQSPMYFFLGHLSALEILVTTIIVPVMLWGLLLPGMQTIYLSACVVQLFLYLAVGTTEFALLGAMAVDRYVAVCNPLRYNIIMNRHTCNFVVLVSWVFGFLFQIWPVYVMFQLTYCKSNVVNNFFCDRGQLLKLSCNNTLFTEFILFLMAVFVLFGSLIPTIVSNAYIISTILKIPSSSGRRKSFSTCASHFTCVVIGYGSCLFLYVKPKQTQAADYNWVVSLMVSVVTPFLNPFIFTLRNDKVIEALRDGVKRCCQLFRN
# In short: as §1
# OR9A2 (Homo sapiens) = OR9A2 (Homo sapiens) (UniProt Q8NGT5)
# In short: as §1
# OR9G1 (Homo sapiens) = OR9G1 (Homo sapiens) (UniProt Q8NH87)
# In short: as §1
# OR9G4 (Homo sapiens) = OR9G4 (Homo sapiens) (UniProt Q8NGQ1)
# In short: as §1
# OR9G1 [1] = tested on: OR9G1
# In short: as §1
# OR9G1 [2] = tested on: OR9G1; remark: listed apart in the source
# In short: as §1
# OR9G1 [3] = tested on: OR9G1; remark: listed apart in the source
# In short: as §1
# OR9G1 [4] = tested on: OR9G1; remark: listed apart in the source
# In short: as §1
structure (smiles),measurement,setting,value
COC(=O)c1ccccc1O,odorant receptor agonist call,OR8U9,inactive
same,odorant receptor agonist call,OR9A2,inactive
same,odorant receptor agonist call,OR9A4 (Homo sapiens),inactive
CC1=CCC(C(C)(C)O)CC1 (centres undefined),odorant receptor agonist call,OR8U9,inactive
same,odorant receptor agonist call,OR9A2,inactive
same,odorant receptor agonist call,OR9A4 (Homo sapiens),inactive
CC(C)CC(=O)O,odorant receptor agonist call,OR8U9,inactive
same,odorant receptor agonist call,OR9A2,active
same,odorant receptor agonist call,OR9A4 (Homo sapiens),inactive
CCCCO,odorant receptor agonist call,OR8U9,inactive
same,odorant receptor agonist call,OR9A2,inactive
same,odorant receptor agonist call,OR9A4 (Homo sapiens),inactive
CCC=CCCO,odorant receptor agonist call,OR8U9,inactive
same,odorant receptor agonist call,OR9A2,inactive
same,odorant receptor agonist call,OR9A4 (Homo sapiens),inactive
CC12C=CCC1C1CCC3CC(=O)CCC3(C)C1CC2 (centres undefined),odorant receptor agonist call,OR8U9,inactive
same,odorant receptor agonist call,OR9A2 (Homo sapiens),inactive
same,odorant receptor agonist call,OR9A2,inactive
same,odorant receptor agonist call,OR9A4 (Homo sapiens),inactive
same,odorant receptor agonist call,OR9G1 (Homo sapiens),inactive
same,odorant receptor agonist call,OR9G4 (Homo sapiens),inactive
CC(C)(C)c1ccc(CCC=O)cc1,odorant receptor agonist call,OR8U9,inactive
same,odorant receptor agonist call,OR9A2,inactive
same,odorant receptor agonist call,OR9A4 (Homo sapiens),inactive
CCCCCOC(C)=O,odorant receptor agonist call,OR8U9,inactive
same,odorant receptor agonist call,OR9A2,inactive
same,odorant receptor agonist call,OR9A4 (Homo sapiens),active
CC(C)C(=O)O,odorant receptor agonist call,OR8U9,inactive
same,odorant receptor agonist call,OR9A2,inactive
same,odorant receptor agonist call,OR9A4 (Homo sapiens),inactive
CC=Cc1ccc(O)c(OC)c1,odorant receptor agonist call,OR8U9,inactive
same,odorant receptor agonist call,OR9A2,inactive
same,odorant receptor agonist call,OR9A4 (Homo sapiens),inactive
O=CCc1ccccc1,odorant receptor agonist call,OR8U9,inactive
same,odorant receptor agonist call,OR9A2,inactive
same,odorant receptor agonist call,OR9A4 (Homo sapiens),inactive
CC(=O)OC1CC2CCC1(C)C2(C)C (centres undefined),odorant receptor agonist call,OR8U9,inactive
same,odorant receptor agonist call,OR9A2,inactive
same,odorant receptor agonist call,OR9A4 (Homo sapiens),active
CCCCCCCCCCC=O,odorant receptor agonist call,OR8U9,inactive
same,odorant receptor agonist call,OR9A2,inactive
same,odorant receptor agonist call,OR9A4 (Homo sapiens),inactive
c1cnccn1,odorant receptor agonist call,OR8U9,inactive
same,odorant receptor agonist call,OR9A2,inactive
same,odorant receptor agonist call,OR9A4 (Homo sapiens),inactive
CCCCCCCOC(C)=O,odorant receptor agonist call,OR8U9,inactive
same,odorant receptor agonist call,OR9A2,inactive
same,odorant receptor agonist call,OR9A4 (Homo sapiens),active
CC(=O)c1ccccc1,odorant receptor agonist call,OR8U9,inactive
same,odorant receptor agonist call,OR9A2,inactive
same,odorant receptor agonist call,OR9A4 (Homo sapiens),inactive
CCC1(O)C2(C)CCC(C2)C1(C)C (centres undefined),odorant receptor agonist call,OR8U9,inactive
same,odorant receptor agonist call,OR9A2,inactive
same,odorant receptor agonist call,OR9A4 (Homo sapiens),inactive
CCCCCCOC(=O)CCC,odorant receptor agonist call,OR8U9,inactive
same,odorant receptor agonist call,OR9A2,inactive
same,odorant receptor agonist call,OR9A4 (Homo sapiens),inactive
CCCCCCCCOC(C)=O,odorant receptor agonist call,OR8U9,inactive
same,odorant receptor agonist call,OR9A2,inactive
same,odorant receptor agonist call,OR9A4 (Homo sapiens),inactive
CC12C=CCC1C1CCC3=CC(=O)CCC3(C)C1CC2 (centres undefined),odorant receptor agonist call,OR8U9,inactive
same,odorant receptor agonist call,OR9A2,inactive
same,odorant receptor agonist call,OR9A4 (Homo sapiens),inactive
COc1cc(C=O)ccc1O,odorant receptor agonist call,OR8U9,inactive
same,odorant receptor agonist call,OR9A2,inactive
same,odorant receptor agonist call,OR9A4 (Homo sapiens),inactive
O=C1CCCCCCCCCCCC(=O)OCCO1,odorant receptor agonist call,OR8U9,inactive
same,odorant receptor agonist call,OR9A2,inactive
same,odorant receptor agonist call,OR9A4 (Homo sapiens),inactive
C=CCc1ccc(OC)c(OC)c1,odorant receptor agonist call,OR8U9,inactive
same,odorant receptor agonist call,OR9A2,inactive
same,odorant receptor agonist call,OR9A4 (Homo sapiens),inactive
CC1CCC(C(C)C)C(O)C1 (centres undefined),odorant receptor agonist call,OR8U9,inactive
same,odorant receptor agonist call,OR9A2,inactive
same,odorant receptor agonist call,OR9A4 (Homo sapiens),inactive
C=CCc1ccc(OC(C)=O)c(OC)c1,odorant receptor agonist call,OR9G1 [1],inactive
same,odorant receptor agonist call,OR9G1 [2],inactive
same,odorant receptor agonist call,OR9G1 [3],inactive
same,odorant receptor agonist call,OR9G1 [4],inactive

# An excerpt of these results, with tabs:
structure (smiles)	measurement	setting	value
CC=Cc1ccc(O)c(OC)c1	odorant receptor agonist call	OR8U9	inactive
same	odorant receptor agonist call	OR9A2	inactive

# Quoted at random: 2 entries already listed, in no set order.
structure (smiles),measurement,setting,value
COc1cc(C=O)ccc1O,odorant receptor agonist call,OR8U9,inactive
CC12C=CCC1C1CCC3CC(=O)CCC3(C)C1CC2 (centres undefined),odorant receptor agonist call,OR8U9,inactive
